The values that follow come from the odorant receptor screen of Mainland et al. (2015).

Some test systems named below: OR5M1 S282T clone 1208; OR5M10 V69L clone 1125; OR5M11 clone 1236; OR5M8 clone 1523; OR5M9 clone 1194; OR5P2 clone 1185; OR5P3 clone 1115; OR5R1 clone 1162; OR5T1 clone 1249; OR5T1 clone 1399.
Common to all, as to experiment: odorant receptor activation (CRE luciferase / Renilla) (fold of no-odor wells); higher = more activation
What all share (details): 100 µM

Where “and” joins values, the source holds several entries; their conditions need not be identical. Equal entries are not always repeated. The list shows a part of the results. Each value is one well over the wells without odorant, computed here; the data are noisy.

Turning to `O=CCc1ccccc1` [phenyl acetaldehyde], the odorant receptor activation in the assay with OR5M1 S282T clone 1208 worked out at 0.846; with OR5M10 V69L clone 1125, 1.34; in the assay with OR5M11 clone 1236 it was 1.91; with OR5M8 clone 1523, 0.834; in the assay with OR5M9 clone 1194, 0.834; with OR5P2 clone 1185, 1.47. The odorant receptor activation amounted to 1.01 with OR5P3 clone 1115, 0.964 in the assay on OR5R1 clone 1162, 1.12 with OR5T1 clone 1249 and 1.6 in the assay on OR5T1 clone 1399.

Consider `CC(=O)OC1CC2CCC1(C)C2(C)C` (stereo not given) [isobornyl acetate], for which the odorant receptor activation was 1.07 with OR5M1 S282T clone 1208; 0.66 in the assay on OR5M10 V69L clone 1125; 0.769 in the assay on OR5M11 clone 1236; 0.806 and 1.22 with OR5M8 clone 1523; 0.915 with OR5M9 clone 1194; 1.05 in the assay with OR5P2 clone 1185. For the same compound, the odorant receptor activation was 0.745 with OR5P3 clone 1115; 1.03 in the assay with OR5R1 clone 1162; 1.01 and 1.25 in the assay with OR5T1 clone 1249; 0.815 in the assay with OR5T1 clone 1399.

In the case of `CC12CCC(C1)C(C)(C)C2=O` (stereo not given) [fenchone], the odorant receptor activation in the assay on OR5M1 S282T clone 1208 was 0.837; in the assay with OR5M10 V69L clone 1125, 1.32; in the assay with OR5M11 clone 1236 it was 1.09; with OR5M8 clone 1523, 1.09; in the assay on OR5M9 clone 1194 it was 0.951; with OR5P2 clone 1185 it was 1.12. The odorant receptor activation was found to be 0.915 in the assay with OR5P3 clone 1115, 1.09 in the assay with OR5R1 clone 1162, 1.11 with OR5T1 clone 1249 and 0.803 in the assay on OR5T1 clone 1399.

`CCCCCCCOC(C)=O` [heptyl acetate]: the odorant receptor activation is 0.983 with OR5M1 S282T clone 1208; 1.18 with OR5M10 V69L clone 1125; 0.98 with OR5M11 clone 1236; 0.725 and 1.15 in the assay with OR5M8 clone 1523; 1.07 in the assay on OR5M9 clone 1194; 1.13 with OR5P2 clone 1185. The odorant receptor activation in the assay with OR5P3 clone 1115 was 0.739; in the assay with OR5R1 clone 1162 it was 0.808; with OR5T1 clone 1249, 1.14 and 1.13; in the assay on OR5T1 clone 1399, 1.06.

As to `C=C(C)C1CC=C(C)C(=O)C1` (stereo not given) [r-carvone], the odorant receptor activation in the assay on OR5M1 S282T clone 1208 was 0.929; in the assay on OR5M10 V69L clone 1125, 1.18; with OR5M11 clone 1236 it was 0.789; in the assay on OR5M8 clone 1523, 1.01; in the assay on OR5M9 clone 1194, 0.856; in the assay on OR5P2 clone 1185, 1.1. Besides, the odorant receptor activation with OR5P3 clone 1115 is 4.38; in the assay on OR5R1 clone 1162, 0.868; in the assay with OR5T1 clone 1249 it was 0.711; with OR5T1 clone 1399, 1.25.

Take `CCC1(O)C2(C)CCC(C2)C1(C)C` (stereo not given) [2-ethylfenchol]: the odorant receptor activation worked out at 0.974 in the assay with OR5M1 S282T clone 1208; 0.959 in the assay with OR5M10 V69L clone 1125; 0.582 with OR5M11 clone 1236; 1.18 with OR5M8 clone 1523; 1.21 in the assay on OR5M9 clone 1194; 1.06 with OR5P2 clone 1185. Moreover, the odorant receptor activation was determined as 6.63 with OR5P3 clone 1115, 0.854 in the assay with OR5R1 clone 1162, 0.925 in the assay with OR5T1 clone 1249 and 1.43 in the assay on OR5T1 clone 1399.

For `CC(=O)OCC=C(C)CCC=C(C)C` [geranyl acetate], the odorant receptor activation in the assay with OR5M1 S282T clone 1208 is 1.36; in the assay on OR5M10 V69L clone 1125, 2.31; in the assay with OR5M11 clone 1236 it was 2.17; in the assay on OR5M8 clone 1523, 0.839 and 1.57; in the assay on OR5M9 clone 1194 it was 1.58; with OR5P2 clone 1185, 1.45. Besides, the odorant receptor activation was 0.763 in the assay with OR5P3 clone 1115; 0.833 in the assay on OR5R1 clone 1162; 1.15 and 1.36 with OR5T1 clone 1249; 1.07 in the assay with OR5T1 clone 1399.

Take `CC(=O)C(C)=O` [diacetyl]: the odorant receptor activation with OR5M1 S282T clone 1208 was 1.07; with OR5M10 V69L clone 1125, 1.21; in the assay on OR5M11 clone 1236, 0.843; in the assay with OR5M8 clone 1523, 1.05; in the assay with OR5M9 clone 1194, 0.892; in the assay on OR5P2 clone 1185 it was 1.26. The odorant receptor activation in the assay on OR5P3 clone 1115 is 0.895; in the assay with OR5R1 clone 1162, 1.33; in the assay with OR5T1 clone 1249, 1; in the assay on OR5T1 clone 1399 it was 1.06.

`CC=Cc1ccc(O)c(OC)c1` [isoeugenol]: the odorant receptor activation in the assay on OR5M1 S282T clone 1208 is 2.27; with OR5M10 V69L clone 1125, 2.42; in the assay on OR5M11 clone 1236, 5.35; with OR5M8 clone 1523, 1.05 and 1.85; in the assay with OR5M9 clone 1194, 2.01; in the assay with OR5P2 clone 1185, 2. Besides, the odorant receptor activation in the assay on OR5P3 clone 1115 was 1.58; in the assay with OR5R1 clone 1162 it was 1.19; in the assay on OR5T1 clone 1249, 1.73 and 1.51; in the assay with OR5T1 clone 1399, 1.34.

For `COc1cc(C)ccc1O` [2-methoxy-4-methylphenol], the odorant receptor activation in the assay on OR5M1 S282T clone 1208 came to 0.893; in the assay on OR5M10 V69L clone 1125 it was 0.975; in the assay with OR5M11 clone 1236 it was 0.987; in the assay on OR5M8 clone 1523, 0.778; with OR5M9 clone 1194 it was 1.13; in the assay on OR5P2 clone 1185, 0.931. Further, the odorant receptor activation in the assay on OR5P3 clone 1115 amounted to 5.93; in the assay on OR5R1 clone 1162, 1.31; in the assay with OR5T1 clone 1249 it was 1.24; in the assay on OR5T1 clone 1399 it was 0.939.

With `CCCCCOC(C)=O` [n-amyl acetate], the odorant receptor activation in the assay on OR5M1 S282T clone 1208 was 0.561; in the assay with OR5M10 V69L clone 1125, 0.843; in the assay on OR5M11 clone 1236 it was 0.802; with OR5M8 clone 1523, 0.773 and 0.98; in the assay on OR5M9 clone 1194 it was 0.323; in the assay with OR5P2 clone 1185, 0.364. The odorant receptor activation in the assay with OR5P3 clone 1115 came out at 1.26; with OR5R1 clone 1162, 0.561; in the assay on OR5T1 clone 1249, 0.271; in the assay on OR5T1 clone 1399, 0.826.
